For at least one entry, the source does not settle the construct or the ends of the probe. Where a protein sequence is shown, tags need not be part of it.

The record followed here is patent publication US20120088276.

The series deals with T1, Ref (bacteriophage P1) (Bacteriophage P1) (UniProt P35926).
T1 sequence: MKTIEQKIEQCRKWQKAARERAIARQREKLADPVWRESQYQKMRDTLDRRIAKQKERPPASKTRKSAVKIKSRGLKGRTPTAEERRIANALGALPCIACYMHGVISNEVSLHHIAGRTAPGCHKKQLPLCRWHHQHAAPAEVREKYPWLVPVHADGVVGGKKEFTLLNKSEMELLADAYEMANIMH
Briefly: EMSA. The following applies: no RecA, Mg2+ buffer A, 37 C, binds without cleavage, purified recombinant protein.

Regarding “GGCCTCGCGGTAGCTGAGCTCGGAGCGCACGATTCGCACTGCTGATGTTC (double strand) [den7/den10 duplex]”, the binding result (label: 3' 6-FAM on den7) was “binds”.

In the case of “GGCCTCGCGGTAGCTGAGCTCGGAGCGCACGATTCGCACTGCTGATGTTC [den7 50-mer]”, the binding result (label: 3' 6-FAM, single-stranded DNA) is recorded as “binds”.
